According to patent US20110059102A1, “Therapeutic Method Targeting Midkine” (NATIONAL UNIVERSITY CORPORATION NAGOYA UNIVERSITY, priority 2009, published 2011):
For at least one compound, name, drawing or mass did not settle the structure.

Experiments:
Type in all cases: in vivo
[1] = test system: Mdk+/+ mice after 5/6 nephrectomy; assay: Blood pressure by tail-cuff method, drug treatment model after 5/6 nephrectomy; details: 2 weeks after 5/6 nephrectomy
Procedure: Drug treatment model. In the drug treatment studies, Mdk^+/+ mice were randomly assigned to receive one of the following 5 treatments after 5/6 nephrectomy and were orally treated daily starting from 24 hours after 5/6 nephrectomy: vasodilator (hydralazine hydrochloride; Novartis) at a dose of 10 mg/kg/d (group 1, n=3); ACE inhibitor (temocapril; Daiichi Sankyo Co.) at a dose of 3 mg/kg/d (group 2, n=3); angiotensin receptor blocker (olmesartan; Daiichi Sankyo Co.) at a dose of 3 mg/kg/d (group 3, n=3); antioxidative reagent (tempol; Alexis Biochemicals) at a dose of 3 mmol/l in drinking solution after 5/6 nephrectomy (group 4, n=6); and sham operation (group 5, n=6). Drug treatment was performed at 2 weeks after 5/6 nephrectomy. In the present study, we determined the dosage according to previous reports (Hypertension. 13:582-588, J. Cardiovasc. Pharmacol. 40:533-542, Hypertension. 43:841-848). Blood pressure was measured by the tail-cuff method at 2 weeks, as described below under Blood pressure monitoring. […]
Blood pressure monitoring. Blood pressure was measured in restrained, conscious mice by the indirect tail-cuff technique under unstressed conditions (BP-98A; Softron) at 0, 2, 4, 6, and 8 weeks after 5/6 nephrectomy (J. Lab. Clin. Med. 78:957-962). […] A total of 7-10 readings were taken for each mouse, at 1- to 2-minute intervals.

[2] = test system: Mdk+/+ mice after 5/6 nephrectomy; assay: Kidney histology (PAS staining) after 5/6 nephrectomy, drug treatment model; details: 2 weeks after 5/6 nephrectomy
Procedure: Drug treatment model. In the drug treatment studies, Mdk^+/+ mice were randomly assigned to receive one of the following 5 treatments after 5/6 nephrectomy and were orally treated daily starting from 24 hours after 5/6 nephrectomy: vasodilator (hydralazine hydrochloride; Novartis) at a dose of 10 mg/kg/d (group 1, n=3); ACE inhibitor (temocapril; Daiichi Sankyo Co.) at a dose of 3 mg/kg/d (group 2, n=3); angiotensin receptor blocker (olmesartan; Daiichi Sankyo Co.) at a dose of 3 mg/kg/d (group 3, n=3); antioxidative reagent (tempol; Alexis Biochemicals) at a dose of 3 mmol/l in drinking solution after 5/6 nephrectomy (group 4, n=6); and sham operation (group 5, n=6). Drug treatment was performed […]. In the present study, we determined the dosage according to previous reports (Hypertension. 13:582-588, J. Cardiovasc. Pharmacol. 40:533-542, Hypertension. 43:841-848). Blood pressure was measured by the tail-cuff method at 2 weeks, as described below under Blood pressure monitoring. Mice were sacrificed at 2 weeks after 5/6 nephrectomy, and blood and tissue samples were collected.
Histology and immunohistochemistry.

[3] = Body weight, blood urea nitrogen and serum creatinine after 5/6 nephrectomy, drug treatment model; details: Mdk+/+ mice, 2 weeks after 5/6 nephrectomy
Procedure: Animals and experimental design. Mice deficient in Mdk were generated as described previously (Genes Cells. 3:811-822). After backcrossing of Mdk+/− mice for 14 generations with 129/Sv mice, Mdk+/− mice were mated with each other to generate Mdk^+/+ and Mdk^−/− mice, which were used in this study. Experiments were performed on 8 to 12-week-old female mice weighing 20-25 g that were housed under controlled environmental conditions and maintained with standard food and water. Animal care and experimental procedures were approved by the Animal Experimentation Committee of the Nagoya University Graduate School of Medicine and were conducted according to the Nagoya University Regulations for Experiments. Renal ablation was performed as described previously. […]
Drug treatment model. […] In the present study, we determined the dosage according to previous reports (Hypertension. 13:582-588, J. Cardiovasc. Pharmacol. 40:533-542, Hypertension. 43:841-848). Blood pressure was measured by the tail-cuff method at 2 weeks, as described below under Blood pressure monitoring. […]
Sample collection. […] Serum creatinine, blood urea nitrogen (Mdk^+/+: sham, n=6; 2 weeks, n=10; 4 weeks, n=9; 8 weeks, n=8; Mdk^−/−: sham, n=7; 2 weeks, n=7; 4 weeks, n=6; 8 weeks, n=4), and Ang II concentrations (Mdk^+/+: sham, n=6; 2 weeks, n=6; 4 weeks, n=8; Mdk^−/−: sham, n=6; 2 weeks, n=7; 4 weeks, n=5) were measured by Mitsubishi BCL.

CCCc1nc(C(C)(C)O)c(C(=O)O)n1Cc1ccc(-c2ccccc2-c2nnn[nH]2)cc1 [Olmesartan, olmesartan]
Blood pressure / hypertension [1]: reduced | Renal tubulointerstitial damage [2]: reduced | Abnormal elevation of blood urea nitrogen and serum creatinine [3]: ameliorated
